Measured values taken from publication PMC6662699.
These are yes or no findings as the source states them, for the method shown. In cells and extracts the contact can be indirect. For some assays here: Binding can be weak; no strength is given. Tags and fused reporters may be left off the sequences shown.

Assays:
GFP-STIL [1] = assay: co-IP; HEK293T cells co-expressing GFP-STIL with Myc-Plk4 and/or Cep131 (WT or 2A); GFP-magnetic beads; immunoblotting (Fig. 5a, b)
GFP-STIL [2] = assay: condition: only with kinase-dead Myc-Plk4-KD co-expressed; co-IP; HEK293T cells co-expressing GFP-STIL, HA-Cep131 and kinase-dead Myc-Plk4-KD; GFP-magnetic beads; immunoblotting (Fig. 5c)

binding (GFP-STIL [1]): binds
binding (GFP-STIL [2]): no binding
B1: HA-Cep131-WT (protein, UniProt Q9UPN4 1-1083)
chain: MKGTRAIGSVPERSPAGVDLSLTGLPPPVSRRPGSAATTKPIVRSVSVVTGSEQKRKVLEATGPGGSQAINNLRRSNSTTQVSQPRSGSPRPTEPTDFLMLFEGSPSGKKRPASLSTAPSEKGATWNVLDDQPRGFTLPSNARSSSALDSPAGPRRKECTVALAPNFTANNRSNKGAVGNCVTTMVHNRYTPSERAPPLKSSNQTAPSLNNIIKAATCEGSESSGFGKLPKNVSSATHSARNNTGGSTGLPRRKEVTEEEAERFIHQVNQATVTIQRWYRHQVQRRGAGAARLEHLLQAKREEQRQRSGEGTLLDLHQQKEAARRKAREEKARQARRAAIQELQQKRALRAQKASTAERGPPENPRETRVPGMRQPAQELSPTPGGTAHQALKANNTGGGLPAAGPGDRCLPTSDSSPEPQQPPEDRTQDVLAQDAAGDNLEMMAPSRGSAKSRGPLEELLHTLQLLEKEPDVLPRPRTHHRGRYAWASEVTTEDDASSLTADNLEKFGKLSAFPEPPEDGTLLSEAKLQSIMSFLDEMEKSGQDQLDSQQEGWVPEAGPGPLELGSEVSTSVMRLKLEVEEKKQAMLLLQRALAQQRDLTARRVKETEKALSRQLQRQREHYEATIQRHLAFIDQLIEDKKVLSEKCEAVVAELKQEDQRCTERVAQAQAQHELEIKKLKELMSATEKARREKWISEKTKKIKEVTVRGLEPEIQKLIARHKQEVRRLKSLHEAELLQSDERASQRCLRQAEELREQLEREKEALGQQERERARQRFQQHLEQEQWALQQQRQRLYSEVAEERERLGQQAARQRAELEELRQQLEESSSALTRALRAEFEKGREEQERRHQMELNTLKQQLELERQAWEAGRTRKEEAWLLNREQELREEIRKGRDKEIELVIHRLEADMALAKEESEKAAESRIKRLRDKYEAELSELEQSERKLQERCSELKGQLGEAEGENLRLQGLVRQKERALEDAQAVNEQLSSERSNLAQVIRQEFEDRLAASEEETRQAKAELATLQARQQLELEEVHRRVKTALARKEEAVSSLRTQHEAAVKRADHLEELLEQHRRPTPSTK
